According to article PMC8788068:
These are yes or no findings as the source states them, for the method shown. Binding seen in cells or lysates may run through a third protein. Some results given as binding are weak or reduced against the parent protein; the word gives no strength.

Sequences of proteins named here, by UniProt entry; tags and fusion partners are left off.
UniProt P15924: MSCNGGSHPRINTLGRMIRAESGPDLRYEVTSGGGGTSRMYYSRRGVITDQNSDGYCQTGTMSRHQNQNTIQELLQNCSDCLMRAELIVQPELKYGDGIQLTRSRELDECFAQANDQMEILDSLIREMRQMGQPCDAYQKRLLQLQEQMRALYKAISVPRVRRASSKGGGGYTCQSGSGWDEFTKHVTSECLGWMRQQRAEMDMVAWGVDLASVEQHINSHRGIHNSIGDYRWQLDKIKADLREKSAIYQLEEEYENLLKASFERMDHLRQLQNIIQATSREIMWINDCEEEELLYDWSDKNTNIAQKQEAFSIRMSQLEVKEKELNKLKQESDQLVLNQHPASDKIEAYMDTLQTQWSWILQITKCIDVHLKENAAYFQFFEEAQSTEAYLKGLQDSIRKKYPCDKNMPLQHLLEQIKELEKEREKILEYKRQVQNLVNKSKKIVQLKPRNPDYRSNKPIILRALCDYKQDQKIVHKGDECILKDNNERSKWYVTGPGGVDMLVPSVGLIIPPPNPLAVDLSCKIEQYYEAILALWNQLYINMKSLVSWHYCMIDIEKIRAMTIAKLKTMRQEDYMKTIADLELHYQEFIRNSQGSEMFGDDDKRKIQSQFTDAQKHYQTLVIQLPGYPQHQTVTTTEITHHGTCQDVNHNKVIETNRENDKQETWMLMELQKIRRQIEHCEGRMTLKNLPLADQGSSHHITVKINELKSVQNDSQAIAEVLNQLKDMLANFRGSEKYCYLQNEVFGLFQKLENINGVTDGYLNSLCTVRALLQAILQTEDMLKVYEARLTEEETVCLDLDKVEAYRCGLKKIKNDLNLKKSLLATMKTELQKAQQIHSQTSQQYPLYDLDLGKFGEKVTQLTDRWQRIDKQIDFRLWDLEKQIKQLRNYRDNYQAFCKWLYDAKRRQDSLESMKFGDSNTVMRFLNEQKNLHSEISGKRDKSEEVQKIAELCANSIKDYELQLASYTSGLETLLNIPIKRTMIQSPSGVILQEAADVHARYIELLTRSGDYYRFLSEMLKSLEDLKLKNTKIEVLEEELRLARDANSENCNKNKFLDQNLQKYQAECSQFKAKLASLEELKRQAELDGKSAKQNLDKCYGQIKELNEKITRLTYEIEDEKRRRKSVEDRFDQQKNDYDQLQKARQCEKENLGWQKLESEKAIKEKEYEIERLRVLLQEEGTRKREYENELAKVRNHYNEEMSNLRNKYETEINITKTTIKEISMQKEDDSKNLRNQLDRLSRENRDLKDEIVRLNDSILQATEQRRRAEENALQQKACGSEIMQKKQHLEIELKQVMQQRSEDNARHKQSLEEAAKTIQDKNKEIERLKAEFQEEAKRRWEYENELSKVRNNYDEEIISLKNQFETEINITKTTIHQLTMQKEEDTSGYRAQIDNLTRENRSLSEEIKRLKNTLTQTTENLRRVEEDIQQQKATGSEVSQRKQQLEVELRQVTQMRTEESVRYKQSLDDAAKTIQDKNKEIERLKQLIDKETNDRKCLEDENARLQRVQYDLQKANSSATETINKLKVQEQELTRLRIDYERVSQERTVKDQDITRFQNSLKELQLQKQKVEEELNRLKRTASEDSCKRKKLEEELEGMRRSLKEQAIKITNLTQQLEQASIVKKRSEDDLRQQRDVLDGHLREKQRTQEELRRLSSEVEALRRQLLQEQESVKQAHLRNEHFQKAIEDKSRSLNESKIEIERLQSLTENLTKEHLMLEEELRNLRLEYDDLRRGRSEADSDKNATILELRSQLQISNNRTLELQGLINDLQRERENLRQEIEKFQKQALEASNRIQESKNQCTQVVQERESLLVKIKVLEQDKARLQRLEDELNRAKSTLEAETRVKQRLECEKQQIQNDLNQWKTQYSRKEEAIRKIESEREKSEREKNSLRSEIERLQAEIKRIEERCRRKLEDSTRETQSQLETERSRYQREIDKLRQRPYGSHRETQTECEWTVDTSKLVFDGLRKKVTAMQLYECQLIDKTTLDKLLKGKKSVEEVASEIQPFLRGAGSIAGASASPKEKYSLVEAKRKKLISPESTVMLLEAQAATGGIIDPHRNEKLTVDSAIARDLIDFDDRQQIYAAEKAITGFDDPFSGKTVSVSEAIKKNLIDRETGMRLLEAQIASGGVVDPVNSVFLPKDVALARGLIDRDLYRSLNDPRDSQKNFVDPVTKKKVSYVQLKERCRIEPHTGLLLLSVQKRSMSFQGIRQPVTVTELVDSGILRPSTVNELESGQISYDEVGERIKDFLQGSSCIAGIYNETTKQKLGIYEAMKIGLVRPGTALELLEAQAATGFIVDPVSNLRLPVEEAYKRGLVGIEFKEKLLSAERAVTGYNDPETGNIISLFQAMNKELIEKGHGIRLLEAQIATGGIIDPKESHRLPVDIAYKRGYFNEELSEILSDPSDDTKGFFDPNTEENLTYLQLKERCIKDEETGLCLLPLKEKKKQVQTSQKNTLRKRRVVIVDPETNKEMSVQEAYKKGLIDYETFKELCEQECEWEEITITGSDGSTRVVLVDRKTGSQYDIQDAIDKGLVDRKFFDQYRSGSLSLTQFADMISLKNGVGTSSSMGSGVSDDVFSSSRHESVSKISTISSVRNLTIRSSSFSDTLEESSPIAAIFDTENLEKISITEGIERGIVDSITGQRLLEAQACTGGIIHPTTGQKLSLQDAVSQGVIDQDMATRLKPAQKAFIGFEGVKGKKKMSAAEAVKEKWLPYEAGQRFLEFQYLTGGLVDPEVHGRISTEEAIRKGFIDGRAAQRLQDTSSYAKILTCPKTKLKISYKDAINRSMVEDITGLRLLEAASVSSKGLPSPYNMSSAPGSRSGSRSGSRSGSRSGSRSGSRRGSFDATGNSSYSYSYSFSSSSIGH

Tests used:
Assay in all cases: co-IP; lysates of MCF7-KRT13 and HCC1954-shKRT13 cells; immunoprecipitation with anti-KRT13, anti-PG or anti-DSP antibody, Protein A/G PLUS-Agarose, 4 °C overnight, rinsed four times with cell lysis buffer; western blot
[1] = biological target: T1, plakoglobin (PG, γ-catenin) (human (endogenous in MCF7 and HCC1954)) (UniProt P14923)
T1 sequence: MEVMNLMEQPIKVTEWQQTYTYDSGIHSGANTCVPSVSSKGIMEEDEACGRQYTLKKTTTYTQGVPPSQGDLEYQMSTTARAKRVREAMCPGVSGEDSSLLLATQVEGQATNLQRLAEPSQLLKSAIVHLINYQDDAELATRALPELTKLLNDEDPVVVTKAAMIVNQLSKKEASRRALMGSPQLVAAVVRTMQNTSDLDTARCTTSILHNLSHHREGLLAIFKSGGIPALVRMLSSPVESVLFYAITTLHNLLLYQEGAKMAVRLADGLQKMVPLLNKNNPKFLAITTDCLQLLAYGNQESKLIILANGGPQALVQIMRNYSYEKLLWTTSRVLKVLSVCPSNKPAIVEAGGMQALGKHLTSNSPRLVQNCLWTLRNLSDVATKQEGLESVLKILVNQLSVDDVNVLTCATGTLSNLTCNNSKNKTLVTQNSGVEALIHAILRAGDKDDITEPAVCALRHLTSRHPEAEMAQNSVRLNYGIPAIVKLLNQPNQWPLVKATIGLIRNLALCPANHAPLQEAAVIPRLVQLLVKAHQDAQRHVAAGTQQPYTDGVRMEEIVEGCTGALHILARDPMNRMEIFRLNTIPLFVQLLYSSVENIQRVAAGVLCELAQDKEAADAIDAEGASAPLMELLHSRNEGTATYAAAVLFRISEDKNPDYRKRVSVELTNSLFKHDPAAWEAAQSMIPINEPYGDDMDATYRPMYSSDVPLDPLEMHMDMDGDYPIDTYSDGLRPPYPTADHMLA

[2] = biological target: desmoplakin (DSP) (human (endogenous in MCF7 and HCC1954)) (UniProt P15924)
[3] = biological target: T2, Keratin 13 (KRT13), endogenous in HCC1954 cells (human (endogenous in HCC1954)) (UniProt P13646)
T2 sequence: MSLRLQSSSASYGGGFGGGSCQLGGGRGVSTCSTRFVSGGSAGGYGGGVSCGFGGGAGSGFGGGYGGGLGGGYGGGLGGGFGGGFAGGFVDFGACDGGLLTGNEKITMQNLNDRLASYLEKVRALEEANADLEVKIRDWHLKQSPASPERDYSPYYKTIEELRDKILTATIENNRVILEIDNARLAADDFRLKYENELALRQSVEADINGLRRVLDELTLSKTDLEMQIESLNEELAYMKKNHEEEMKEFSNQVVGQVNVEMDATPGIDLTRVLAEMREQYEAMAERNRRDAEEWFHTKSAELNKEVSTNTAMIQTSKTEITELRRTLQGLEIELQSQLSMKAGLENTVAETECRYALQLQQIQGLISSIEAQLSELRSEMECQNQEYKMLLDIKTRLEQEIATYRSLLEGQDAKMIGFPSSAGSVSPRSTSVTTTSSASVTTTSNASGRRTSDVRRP

[4] = biological target: T3, Keratin 13 (KRT13), overexpressed in MCF7 cells (MCF7-KRT13) (human) (UniProt P13646)
T3 sequence: T2 sequence

B1: Keratin 13 (KRT13), endogenous in HCC1954 cells (protein, UniProt P13646 1-458)
chain: T2 sequence
binding [1]: binds
binding [2]: binds

B2: plakoglobin (PG, γ-catenin) (protein, UniProt P14923 1-745)
chain: T1 sequence
binding [2]: binds
binding [3]: binds
binding [4]: binds

B3: Keratin 13 (KRT13), overexpressed in MCF7 cells (MCF7-KRT13) (protein, UniProt P13646-1 1-458)
chain: T2 sequence
binding [1]: binds
binding [2]: binds
